Results are given in words; binding and its absence hold for the method and conditions named. Some results given as binding are weak or reduced against the parent protein; the word gives no strength.
Target: T1, human CD70, full length, on CHO cells (CHO-human CD70-B07) (human) (UniProt P32970)
T1 sequence (looked up): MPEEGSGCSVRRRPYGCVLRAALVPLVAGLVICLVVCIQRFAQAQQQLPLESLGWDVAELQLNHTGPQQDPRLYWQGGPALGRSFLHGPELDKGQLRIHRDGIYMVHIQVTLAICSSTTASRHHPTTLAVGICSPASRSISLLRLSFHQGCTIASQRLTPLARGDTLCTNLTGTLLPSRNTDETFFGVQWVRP
Test: flow cytometry on CHO-human CD70 cells

binding: binds
B1: humanized antibody Ab004 (IgG1 wild type) (antibody, V domains shown)
VH: QVQLVQSGSELKKPGASVKVSCKASGYTFTNYGMNWVRQAPGQGLEWMGWINTYTGEPTYADGFTGRFVFSLDTSASTAYLQISSLKAEDTAVYFCAREEDYRYVFNYWGQGTLVTVSS
VL: DIQMTQSPSSLSASVGDRVTITCQASQDISNYLNWYQQKPGKAPKLLIYDTSRLHAGVPSRFSGSGSGTDYTFTISSLQPEDIATYFCQQGVTLPLTFGQGTKLEIK
notes: also called Ab004 IgG1 wt; h39H5 VHv2 + h39H5 VKv1
